{"sequences": {"note": "Protein sequences, listed by entry. Tags and fused reporters are not part of them.", "UniProt O60678": "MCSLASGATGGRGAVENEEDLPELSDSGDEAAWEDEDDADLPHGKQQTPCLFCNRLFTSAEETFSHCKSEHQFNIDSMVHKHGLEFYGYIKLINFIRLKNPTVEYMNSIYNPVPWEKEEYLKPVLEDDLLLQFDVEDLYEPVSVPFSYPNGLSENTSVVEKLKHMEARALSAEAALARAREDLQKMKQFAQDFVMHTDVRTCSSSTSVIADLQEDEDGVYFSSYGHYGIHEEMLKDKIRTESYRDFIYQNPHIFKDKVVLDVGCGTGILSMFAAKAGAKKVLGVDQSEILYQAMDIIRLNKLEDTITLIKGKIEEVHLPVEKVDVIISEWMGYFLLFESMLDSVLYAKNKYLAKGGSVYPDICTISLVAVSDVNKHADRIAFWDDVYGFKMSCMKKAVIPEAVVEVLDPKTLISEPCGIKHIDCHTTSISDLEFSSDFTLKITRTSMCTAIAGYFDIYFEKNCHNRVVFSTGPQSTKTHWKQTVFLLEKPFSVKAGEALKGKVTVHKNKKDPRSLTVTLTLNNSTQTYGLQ", "UniProt P67809": "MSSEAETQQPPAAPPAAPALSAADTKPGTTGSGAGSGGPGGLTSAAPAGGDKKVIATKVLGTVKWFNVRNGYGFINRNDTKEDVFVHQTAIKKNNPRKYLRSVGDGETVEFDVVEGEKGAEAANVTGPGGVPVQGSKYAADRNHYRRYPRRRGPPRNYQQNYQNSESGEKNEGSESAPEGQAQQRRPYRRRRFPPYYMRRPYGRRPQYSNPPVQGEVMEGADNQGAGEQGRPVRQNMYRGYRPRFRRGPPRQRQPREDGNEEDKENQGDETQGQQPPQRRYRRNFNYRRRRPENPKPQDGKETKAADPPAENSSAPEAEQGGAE"}, "source": "paper PMC10079833", "molecular_target": "Protein arginine methyltransferase 3 (human (endogenous in PLC-8024, Huh7, Huh7-R, HepG2)) (UniProt O60678)", "assay": "affinity purification with mass spectrometry; proteins co-precipitated with PRMT3 from PLC-8024 and HepG2 cell lysates, analysed by LC-MS/MS; 84 proteins common to both cell lines", "note": "Results are given in words; binding and its absence hold for the method and conditions named. Binding seen in cells or lysates may run through a third protein. These calls come from enrichment with a bait or labelling near it, and not all partners need be listed.", "data": [{"substance": "YBX1 (from UniProt P67809 1-324)", "values": [{"measurement": "binding", "value": "binds"}]}]}
